The target in the assay is Bromodomain-containing protein 4 (Homo sapiens, UniProt O60885). Kind of assay: Displacement of biotinylated H4(1 to 24 amino acid residues)-K5/8/12/16Ac from human N-terminal His6-tagged BRD4 bromodomain-1 expressed in Escherichia coli BL21(DE3) cells by alpha screen assay. (Bead proximity is the source of the signal in Alpha formats.)

`Cc1cccc(Oc2nccc(-c3c(-c4ccc(F)cc4)ncn3C3CCNCC3)n2)c1C` showed an IC50 of 2500 nM.

Broadly, the IC50 is the midpoint of a concentration-inhibition curve. Higher therefore signals weaker potency in that assay.

Source of the values: ChEMBL document CHEMBL3751772, “Fragments in bromodomain drug discovery” (Medchemcomm, 2015).
